Experimental data: patent US7951914B2, “Genetically modified cyclic-nucleotide controlled ion channels” (Forschungszentrum Julich GmbH, priority 2001, dated 2011)
Changes are numbered by the printed parent chain. Names may count otherwise.

Test system: homooligomeric bovine α3 CNG channels
Assay: Patch clamp electrophysiology of inside-out patches: activation of heterologously expressed CNG channels by cAMP and cGMP
Assay type: biochemical
Settings: +100 mV; for Imax: maximum current, cAMP / Imin: minimum current, cAMP: FIG. 1B / 3B; for Imax: maximum current, cGMP / Imin: minimum current, cGMP: FIG. 2B / 4B
Description: For this purpose, the corresponding nucleic acids were cloned into the expression vector pcDNA3.1 (Invitrogen) (see Methods). The expression constructs were then used to transform the cells of the human embryonic kidney cell line 293 (HEK293 cells) and the corresponding proteins were functionally expressed therein either transiently or stably (see Methods). The results of the studies are depicted in FIGS. 1-4. FIGS. 1-4 B depict the dependence of the average current on the cAMP concentration and cGMP concentration, respectively, in each case in the form of a dose-response relationship. The results of these measurements were used to calculate the sensitivity of the CNG channels to cAMP and cGMP. […] EMBO J., 13, 5040-5050. For electrophysiological characterization, the cells were transferred to glass slides which had been coated with poly L-lysine, on the day after transfection. The electrophysiological studies were then carried out on the following day. […] The electrophysiological characterization of the genetically modified CNG channels was carried out using the patch clamp technique under voltage clamping conditions. […] inside-out patches were excised from cells which stably expressed genetically modified or wild-type CNG channels. The bath solution containing different concentrations of cyclic nucleotides was used to flow over the membrane patches. Starting from a holding voltage of 0 mV, sudden voltage changes were applied to different test voltages between -100 mV and +100 mV at the patch with a step width of 20 mV. The currents were registered and analyzed using standard methods.

B1: T537M: bovine α3 CNG channel with methionine in place of threonine T537 (SEQ ID NO 4) (protein, UniProt Q03041 1-663, looked up, variant T537M)
Cyclic nucleotide-gated …: MTEKANGVKSSPANNHNHHAPPAIKASGKDDHRASSRPQSAAADDTSSELQQLAEMDAPQQRRGGFRRIARLVGVLREWAYRNFREEEPRPDSFLERFRGPELHTVTTQQGDGKGDKDGEGKGTKKKFELFVLDPAGDWYYRWLFLIALPVLYNWCLLVARACFSDLQKGYYIVWLVLDYVSDVVYIADLFIRLRTGFLEQGLLVKDTKKLRDNYIHTMQFKLDVASIIPTDLIYFAVGIHNPEVRFNRLLHFARMFEFFDRTETRTSYPNIFRISNLILYILIIIHWNACIYYAISKSIGFGVDTWVYPNITDPEYGYLSREYIYCLYWSTLTLTTIGETPPPVKDEEYLFVIFDFLIGVLIFATIVGNVGSMISNMNATRAEFQAKIDAVKHYMQFRKVSKEMEAKVIRWFDYLWTNKKSVDEREVLKNLPAKLRAEIAINVHLSTLKKVRIFQDCEAGLLVELVLKLRPQVFSPGDYICRKGDIGKEMYIIKEGKLAVVADDGVTQYALLSAGSCFGEISILNIKGSKMGNRRMANIRSLGYSDLFCLSKDDLMEAVTEYPDAKRVLEERGREILMKEGLLDENEVAASMEVDVQEKLEQLETNMDTLYTRFARLLAEYTGAQQKLKQRITVLETKMKQNNEDDSLSDGMNSPEPPAEKP
- Imax: maximum current, cAMP: 328 pA
- Imin: minimum current, cAMP: 24 pA
- Imax: maximum current, cGMP: 167 pA
- Imin: minimum current, cGMP: 11 pA

B2: T537V: bovine α3 CNG channel with valine in place of threonine T537 (SEQ ID NO 6) (protein)
chain: B1 Cyclic nucleotide-gated … with M537V
modifications: Bovine
- Imax: maximum current, cAMP: 181 pA
- Imin: minimum current, cAMP: 11 pA
- Imax: maximum current, cGMP: 1 389 pA
- Imin: minimum current, cGMP: 13 pA
